# Measurements reported in paper PMC8635029 (Frontiers in Pharmacology, 2021).
# Where a name gives a salt, the structure may show the parent alone.
# System: ICR mice
# Test: Acetic acid-induced writhing test
# Type: in vivo
# Settings: 10 mg/kg s.c., 30 min post-dosing
# Method: ICR mice (half male and half female) were used in this assay. […] A writhe was defined as a wave of contraction of the abdominal musculature followed by extension of the hind limbs ([Wang et al., 2018]). The percentage inhibition of writhes was calculated by the following formula: % antinociception = (Nv−Nt)/Nv × 100, where Nv is the number of writhes in vehicle group and Nt is the number of writhes in treatment groups.
smiles,measurement,value
"CN1CC[C@]23c4c5ccc(O)c4O[C@H]2[C@@H](O)C=C[C@H]3[C@H]1C5 [morphine, morphine sulfate]",effect on acetic acid-induced pain behaviors,completed suppressed
